Amino acid sequences for entries named in this document (tags omitted).
UniProt Q9JIP4, whole entry: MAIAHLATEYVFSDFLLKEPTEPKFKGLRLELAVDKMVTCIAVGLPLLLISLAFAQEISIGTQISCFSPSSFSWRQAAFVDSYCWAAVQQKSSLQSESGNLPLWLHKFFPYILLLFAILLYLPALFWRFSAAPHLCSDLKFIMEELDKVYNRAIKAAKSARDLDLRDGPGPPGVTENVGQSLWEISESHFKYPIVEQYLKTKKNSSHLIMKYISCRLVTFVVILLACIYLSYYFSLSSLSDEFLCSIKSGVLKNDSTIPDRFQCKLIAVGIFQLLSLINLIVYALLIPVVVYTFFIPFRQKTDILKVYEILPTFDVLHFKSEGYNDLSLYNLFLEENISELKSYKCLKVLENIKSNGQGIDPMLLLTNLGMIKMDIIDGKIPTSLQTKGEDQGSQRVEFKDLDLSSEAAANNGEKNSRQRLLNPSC

According to patent publication US11298569B2 (priority 2016, dated 2022):

Biological target: T1, Panx1 (Mus musculus, UniProt Q9JIP4)
T1 construct: BV2 microglia were maintained in DMEM media (Gibco) containing 10% FBS; endogenous in cells; host or cells: BV-2 microglia
Format: cell-based
Details: morphine 10 μM once a day for 5 days; BzATP 150 μM

CN1CC[C@]23c4c5ccc(O)c4O[C@H]2[C@@H](O)C=C[C@H]3[C@H]1C5 [morphine]
BzATP-evoked YO-PRO-1 uptake, morphine vs saline-treated microglia: significantly greater uptake
